According to the supplement of paper PMC10849652:
This is one part of the list.

Protein sequences, listed by entry. Tags and fused reporters are not part of them. Lines headed by an entry give the natural chain unless they say otherwise; changes in a name come on top.
UniProt O43709: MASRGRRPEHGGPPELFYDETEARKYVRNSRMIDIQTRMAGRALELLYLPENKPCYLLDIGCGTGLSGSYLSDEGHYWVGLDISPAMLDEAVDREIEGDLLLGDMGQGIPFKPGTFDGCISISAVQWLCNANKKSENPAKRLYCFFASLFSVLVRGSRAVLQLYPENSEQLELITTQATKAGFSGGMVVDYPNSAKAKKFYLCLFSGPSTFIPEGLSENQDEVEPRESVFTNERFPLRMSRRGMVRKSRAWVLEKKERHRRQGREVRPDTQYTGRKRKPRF
UniProt P49069: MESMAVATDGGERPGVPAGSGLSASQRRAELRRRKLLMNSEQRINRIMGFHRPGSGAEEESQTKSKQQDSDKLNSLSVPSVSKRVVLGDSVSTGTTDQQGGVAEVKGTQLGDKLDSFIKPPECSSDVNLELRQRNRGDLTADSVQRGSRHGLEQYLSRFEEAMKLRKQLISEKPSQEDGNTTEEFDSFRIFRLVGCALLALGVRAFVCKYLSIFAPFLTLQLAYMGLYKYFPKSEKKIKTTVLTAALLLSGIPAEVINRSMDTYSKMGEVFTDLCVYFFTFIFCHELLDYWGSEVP
UniProt Q13895: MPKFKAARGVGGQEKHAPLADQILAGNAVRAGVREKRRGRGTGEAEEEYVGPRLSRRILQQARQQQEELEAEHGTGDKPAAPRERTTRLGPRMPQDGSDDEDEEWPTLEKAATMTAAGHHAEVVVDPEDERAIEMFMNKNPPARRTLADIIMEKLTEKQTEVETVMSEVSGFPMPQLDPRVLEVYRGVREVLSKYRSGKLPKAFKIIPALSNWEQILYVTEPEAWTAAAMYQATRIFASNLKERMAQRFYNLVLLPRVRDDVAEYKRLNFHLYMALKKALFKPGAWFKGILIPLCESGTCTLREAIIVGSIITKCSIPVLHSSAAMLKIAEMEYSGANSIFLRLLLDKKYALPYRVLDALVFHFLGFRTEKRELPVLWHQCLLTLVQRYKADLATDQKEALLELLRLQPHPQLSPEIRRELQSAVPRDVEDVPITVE
UniProt Q6UWU4: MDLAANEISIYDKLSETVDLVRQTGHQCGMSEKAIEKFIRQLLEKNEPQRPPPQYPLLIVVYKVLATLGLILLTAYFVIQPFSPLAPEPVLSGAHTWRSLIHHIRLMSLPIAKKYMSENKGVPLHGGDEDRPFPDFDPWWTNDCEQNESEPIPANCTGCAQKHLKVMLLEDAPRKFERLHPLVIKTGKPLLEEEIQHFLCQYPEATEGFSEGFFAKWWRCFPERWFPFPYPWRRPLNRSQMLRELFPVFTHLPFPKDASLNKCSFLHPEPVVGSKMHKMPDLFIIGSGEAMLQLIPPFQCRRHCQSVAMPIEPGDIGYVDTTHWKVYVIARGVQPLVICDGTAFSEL
UniProt Q9P1Z2: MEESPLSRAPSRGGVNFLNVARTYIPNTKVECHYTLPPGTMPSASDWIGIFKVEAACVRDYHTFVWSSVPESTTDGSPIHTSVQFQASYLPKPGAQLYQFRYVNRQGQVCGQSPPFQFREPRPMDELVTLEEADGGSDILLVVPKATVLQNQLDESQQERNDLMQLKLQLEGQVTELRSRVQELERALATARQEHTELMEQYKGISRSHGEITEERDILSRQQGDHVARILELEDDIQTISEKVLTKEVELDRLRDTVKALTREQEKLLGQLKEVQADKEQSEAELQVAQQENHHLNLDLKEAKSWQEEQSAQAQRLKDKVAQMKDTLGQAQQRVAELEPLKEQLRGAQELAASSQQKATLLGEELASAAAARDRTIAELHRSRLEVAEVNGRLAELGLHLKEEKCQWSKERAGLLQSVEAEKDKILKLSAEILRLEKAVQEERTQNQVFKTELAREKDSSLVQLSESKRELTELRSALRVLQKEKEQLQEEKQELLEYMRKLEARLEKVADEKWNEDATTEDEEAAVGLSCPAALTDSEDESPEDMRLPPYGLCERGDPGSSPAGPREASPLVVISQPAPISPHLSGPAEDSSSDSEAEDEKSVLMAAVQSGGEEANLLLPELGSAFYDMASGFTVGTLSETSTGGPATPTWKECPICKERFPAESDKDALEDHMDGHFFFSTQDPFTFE
UniProt Q9H8G2: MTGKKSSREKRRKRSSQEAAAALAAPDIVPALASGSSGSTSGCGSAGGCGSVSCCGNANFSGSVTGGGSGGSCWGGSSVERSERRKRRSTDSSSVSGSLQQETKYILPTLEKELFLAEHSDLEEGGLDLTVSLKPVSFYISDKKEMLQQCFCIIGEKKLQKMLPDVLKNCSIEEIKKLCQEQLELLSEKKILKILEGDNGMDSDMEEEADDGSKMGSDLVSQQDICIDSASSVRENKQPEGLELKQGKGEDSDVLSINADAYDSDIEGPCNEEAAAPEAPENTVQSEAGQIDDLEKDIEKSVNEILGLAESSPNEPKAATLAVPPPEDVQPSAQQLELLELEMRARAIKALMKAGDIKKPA
UniProt Q96KE9: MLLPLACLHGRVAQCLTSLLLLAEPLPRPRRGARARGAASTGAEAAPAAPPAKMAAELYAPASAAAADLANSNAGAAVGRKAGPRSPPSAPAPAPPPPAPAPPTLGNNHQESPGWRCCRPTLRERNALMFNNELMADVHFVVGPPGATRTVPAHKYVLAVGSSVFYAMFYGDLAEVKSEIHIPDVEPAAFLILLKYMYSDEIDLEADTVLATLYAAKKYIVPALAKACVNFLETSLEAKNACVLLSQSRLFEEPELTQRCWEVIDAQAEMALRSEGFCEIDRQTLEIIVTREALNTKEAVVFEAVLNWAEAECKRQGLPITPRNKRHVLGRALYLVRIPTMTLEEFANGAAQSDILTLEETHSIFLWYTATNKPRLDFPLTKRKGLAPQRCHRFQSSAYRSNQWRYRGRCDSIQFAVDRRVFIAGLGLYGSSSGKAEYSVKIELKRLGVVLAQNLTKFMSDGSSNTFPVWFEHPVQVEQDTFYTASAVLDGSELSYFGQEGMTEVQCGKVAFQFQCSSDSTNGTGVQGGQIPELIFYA
UniProt Q9BVC5: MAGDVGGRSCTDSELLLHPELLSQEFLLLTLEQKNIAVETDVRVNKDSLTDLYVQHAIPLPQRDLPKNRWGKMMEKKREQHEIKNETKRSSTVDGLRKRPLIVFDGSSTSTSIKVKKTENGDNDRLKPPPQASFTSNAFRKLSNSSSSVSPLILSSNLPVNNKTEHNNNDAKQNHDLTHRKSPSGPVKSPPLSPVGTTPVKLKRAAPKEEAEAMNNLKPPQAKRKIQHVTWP
UniProt Q8TCD1: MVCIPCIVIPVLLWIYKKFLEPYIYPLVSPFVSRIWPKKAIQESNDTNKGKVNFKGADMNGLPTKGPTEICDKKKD
UniProt Q9H7E9: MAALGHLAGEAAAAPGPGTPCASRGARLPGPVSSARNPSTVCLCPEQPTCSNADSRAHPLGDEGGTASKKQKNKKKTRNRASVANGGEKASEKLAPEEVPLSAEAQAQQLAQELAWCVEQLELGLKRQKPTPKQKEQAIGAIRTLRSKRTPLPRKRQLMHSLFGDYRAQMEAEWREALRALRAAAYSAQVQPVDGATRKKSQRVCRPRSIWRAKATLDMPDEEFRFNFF
UniProt Q8NDD1: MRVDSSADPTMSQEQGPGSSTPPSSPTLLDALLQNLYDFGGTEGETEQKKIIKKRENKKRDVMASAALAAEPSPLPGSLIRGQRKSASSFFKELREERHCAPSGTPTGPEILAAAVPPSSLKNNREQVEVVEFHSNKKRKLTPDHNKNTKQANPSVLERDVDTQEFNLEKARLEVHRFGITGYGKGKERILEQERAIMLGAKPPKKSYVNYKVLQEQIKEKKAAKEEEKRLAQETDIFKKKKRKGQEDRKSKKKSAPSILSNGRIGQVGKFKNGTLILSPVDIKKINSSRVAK
UniProt Q07021: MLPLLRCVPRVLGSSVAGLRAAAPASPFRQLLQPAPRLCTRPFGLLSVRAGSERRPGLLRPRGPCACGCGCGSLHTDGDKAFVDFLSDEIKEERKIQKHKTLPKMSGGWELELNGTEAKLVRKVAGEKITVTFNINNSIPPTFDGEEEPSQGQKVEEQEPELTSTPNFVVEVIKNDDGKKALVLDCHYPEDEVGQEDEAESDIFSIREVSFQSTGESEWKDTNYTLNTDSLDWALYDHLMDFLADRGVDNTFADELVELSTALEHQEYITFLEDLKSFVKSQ
UniProt P0C0L4: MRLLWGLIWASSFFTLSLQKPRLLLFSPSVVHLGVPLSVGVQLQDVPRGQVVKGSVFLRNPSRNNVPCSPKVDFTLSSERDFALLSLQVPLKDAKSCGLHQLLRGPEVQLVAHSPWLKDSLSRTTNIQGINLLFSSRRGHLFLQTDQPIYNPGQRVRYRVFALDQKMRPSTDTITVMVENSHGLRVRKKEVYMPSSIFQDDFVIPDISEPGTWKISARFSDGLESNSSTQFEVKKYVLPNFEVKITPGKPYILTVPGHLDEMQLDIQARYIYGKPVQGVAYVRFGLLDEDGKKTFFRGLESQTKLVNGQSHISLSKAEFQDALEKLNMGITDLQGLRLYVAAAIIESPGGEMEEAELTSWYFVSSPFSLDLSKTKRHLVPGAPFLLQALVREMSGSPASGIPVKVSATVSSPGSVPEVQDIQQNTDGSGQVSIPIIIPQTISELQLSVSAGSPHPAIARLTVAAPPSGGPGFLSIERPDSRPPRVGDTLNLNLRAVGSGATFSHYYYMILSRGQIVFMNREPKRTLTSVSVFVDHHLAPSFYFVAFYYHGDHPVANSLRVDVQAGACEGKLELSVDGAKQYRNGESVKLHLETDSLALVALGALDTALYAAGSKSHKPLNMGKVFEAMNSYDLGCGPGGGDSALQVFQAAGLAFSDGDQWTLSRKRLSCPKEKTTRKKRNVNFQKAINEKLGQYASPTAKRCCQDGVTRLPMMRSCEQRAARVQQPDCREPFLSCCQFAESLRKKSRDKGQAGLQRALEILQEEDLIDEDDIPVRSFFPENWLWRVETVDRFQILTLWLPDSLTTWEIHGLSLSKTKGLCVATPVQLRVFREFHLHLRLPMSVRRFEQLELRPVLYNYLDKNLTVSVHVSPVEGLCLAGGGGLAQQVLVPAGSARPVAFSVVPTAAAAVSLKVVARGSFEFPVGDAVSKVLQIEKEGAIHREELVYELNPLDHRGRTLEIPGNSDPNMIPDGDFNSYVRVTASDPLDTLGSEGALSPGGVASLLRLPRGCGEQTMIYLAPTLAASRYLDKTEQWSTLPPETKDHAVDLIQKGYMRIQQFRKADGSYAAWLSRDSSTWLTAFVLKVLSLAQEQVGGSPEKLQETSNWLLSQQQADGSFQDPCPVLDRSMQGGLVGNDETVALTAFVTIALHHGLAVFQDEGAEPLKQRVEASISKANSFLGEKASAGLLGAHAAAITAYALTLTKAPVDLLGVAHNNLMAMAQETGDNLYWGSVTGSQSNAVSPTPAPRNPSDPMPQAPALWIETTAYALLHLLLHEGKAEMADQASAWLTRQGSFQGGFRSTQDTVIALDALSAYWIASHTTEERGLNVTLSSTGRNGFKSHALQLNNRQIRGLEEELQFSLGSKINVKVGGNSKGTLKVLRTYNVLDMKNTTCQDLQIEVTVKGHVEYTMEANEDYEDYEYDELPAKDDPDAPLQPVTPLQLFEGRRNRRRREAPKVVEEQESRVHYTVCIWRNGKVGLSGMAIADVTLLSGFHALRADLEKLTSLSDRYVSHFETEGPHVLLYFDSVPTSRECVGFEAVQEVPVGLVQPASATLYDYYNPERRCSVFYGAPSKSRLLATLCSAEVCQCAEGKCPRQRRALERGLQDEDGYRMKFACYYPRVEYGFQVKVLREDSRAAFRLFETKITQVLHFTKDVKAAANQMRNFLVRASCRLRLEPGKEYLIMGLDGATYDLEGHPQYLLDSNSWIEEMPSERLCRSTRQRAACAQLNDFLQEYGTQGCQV
UniProt O14523: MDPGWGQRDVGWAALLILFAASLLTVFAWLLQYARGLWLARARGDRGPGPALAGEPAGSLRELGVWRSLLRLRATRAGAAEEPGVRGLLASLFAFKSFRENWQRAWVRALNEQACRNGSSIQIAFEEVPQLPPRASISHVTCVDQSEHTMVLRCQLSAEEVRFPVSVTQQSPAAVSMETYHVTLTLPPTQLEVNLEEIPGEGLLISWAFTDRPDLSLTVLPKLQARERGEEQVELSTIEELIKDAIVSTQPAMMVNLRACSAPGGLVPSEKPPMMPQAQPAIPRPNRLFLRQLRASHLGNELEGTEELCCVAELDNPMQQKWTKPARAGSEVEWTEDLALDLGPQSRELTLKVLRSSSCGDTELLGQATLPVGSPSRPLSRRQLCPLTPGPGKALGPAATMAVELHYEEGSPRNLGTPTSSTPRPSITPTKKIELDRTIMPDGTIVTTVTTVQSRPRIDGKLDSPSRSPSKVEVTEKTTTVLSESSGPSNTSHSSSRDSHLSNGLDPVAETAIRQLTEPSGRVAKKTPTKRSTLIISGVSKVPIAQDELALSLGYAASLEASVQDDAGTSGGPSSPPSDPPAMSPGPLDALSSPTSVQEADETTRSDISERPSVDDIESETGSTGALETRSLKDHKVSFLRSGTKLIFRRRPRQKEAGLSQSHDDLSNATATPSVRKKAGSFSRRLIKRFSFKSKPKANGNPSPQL

How the values were obtained:
Test in all cases: log2 fold change, soluble protein after heating vs DMSO (PISA); higher = thermal stabilisation; K562 cells, 10 uM, 30 min; active = over 0.2 and 3.5 SD of the protein, either way, in both replicates (recomputed)
[1] = compound: CC[C@@H]1C(=O)N(C)c2cnc(Nc3ccc(C(=O)NC4CCN(C)CC4)cc3OC)nc2N1C1CCCC1
How it was run: (§1)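 Thermal stability values are relative to control samples and come from duplicates. They are expressed as log2 fold changes. For measurement, K562 cells (2×10^6 cells/mL) received 10 μM compound for 30 min, and aliquots were heated for 3 min over 48°C-58°C, pooled, and extracted at 4°C in PBS with 0.5% NP-40. Soluble protein, the supernatant after 21,000xg for 90 min, was quantified by TMTpro 16plex LC-MS/MS with equalised channel sums.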

volasertib = compound: CC[C@@H]1C(=O)N(C)c2cnc(Nc3ccc(C(=O)N[C@H]4CC[C@H](N5CCN(CC6CC6)CC5)CC4)cc3OC)nc2N1C(C)C [volasertib]
How it was run: as §1

[2] = compound: CC[C@H](C)N1C=C(C2=C(C=C(C=C21)C3=CN=C(C=C3)N4CCNCC4)C(=O)NCC5=C(C=C(NC5=O)C)C)C
How it was run: as §1

epoxomicin = compound: CC[C@H](C)[C@@H](C(=O)N[C@@H]([C@@H](C)O)C(=O)N[C@@H](CC(C)C)C(=O)[C@]1(CO1)C)NC(=O)[C@H]([C@@H](C)CC)N(C)C(=O)C [epoxomicin]
How it was run: as §1

[3] = compound: CCn1c(C(=O)N(C2CC2)C2CC2)cc2c3c(ncn3C)c(Nc3cc(C)n(C)n3)nc21
How it was run: as §1

[4] = compound: CCn1cc(-c2ccnc3[nH]c(-c4cccc(CN(C)C)c4)cc23)c(-c2ccc(NC(=O)N(C)C)cc2)n1
How it was run: as §1

[5] = compound: CN(C)CC(=O)Nc1ccc2[nH]c(=O)c3ccccc3c2c1
How it was run: as §1

rosiglitazone = compound: CN(CCOC1=CC=C(C=C1)C[C@H]2C(=O)NC(=O)S2)C3=CC=CC=N3 (racemic) [rosiglitazone]
How it was run: as §1

[6] = compound: CN1C2=C(C3=C1C(=O)N(N=C3)CC4=CC(=CC=C4)N)SC(=C2)S(=O)C
How it was run: as §1

[7] = compound: CN1CCC(CNc2ccc3ncc(-c4cccc(OC(F)(F)F)c4)n3n2)CC1
How it was run: as §1

Target	log2 fold change [1]	log2 fold change (volasertib)	log2 fold change [2]	log2 fold change (epoxomicin)	log2 fold change [3]	log2 fold change [4]	log2 fold change [5]	log2 fold change (rosiglitazone)	log2 fold change [6]	log2 fold change [7]
C2CD2 (UniProt Q9Y426)	inactive: -0.128	inactive: -0.038	inactive: 0.026	inactive: 0.062	inactive: -0.112	inactive: 0	inactive: -0.007	inactive: 0.103	inactive: 0.017	inactive: -0.008
BUD23 isoform 3 (UniProt O43709)	inactive: 0.099	inactive: 0.152	inactive: -0.02	inactive: -0.096	inactive: 0.027	inactive: 0.074	inactive: -0.11	inactive: 0.019	inactive: 0.074	inactive: 0.006
C1GALT1 (UniProt Q9NS00)	inactive: -0.007	inactive: -0.098	inactive: 0.004	inactive: -0.045	inactive: -0.039	inactive: -0.062	inactive: 0.039	inactive: 0.053	inactive: -0.015	inactive: -0.037
C8orf82 (UniProt Q6P1X6)	inactive: -0.014	inactive: 0.029	inactive: -0.015	inactive: 0.102	inactive: -0.011	inactive: 0.006	inactive: -0.013	inactive: -0.014	inactive: -0.083	inactive: 0.018
CAMLG (UniProt P49069)	inactive: -0.082	inactive: 0.055	inactive: -0.014	inactive: -0.007	inactive: -0.082	inactive: -0.017	inactive: -0.007	inactive: 0.012	inactive: -0.016	inactive: -0.02
BYSL (UniProt Q13895)	inactive: -0.009	inactive: -0.113	inactive: 0.072	inactive: 0.118		inactive: 0.053	inactive: 0.079		inactive: 0.09	inactive: 0.053
C6orf89 isoform 2 (UniProt Q6UWU4)	inactive: 0.015	inactive: 0.009	inactive: -0.05	inactive: 0.045	inactive: 0.016	inactive: -0.073	inactive: 0.028	inactive: 0.032	inactive: -0.001	inactive: 0.047
CALCOCO1 (UniProt Q9P1Z2)	inactive: -0.082	inactive: -0.101	inactive: 0.068	inactive: -0.092	inactive: -0.037	inactive: 0.088	inactive: 0.037	inactive: 0.114	inactive: -0.025	inactive: 0.148
CAAP1 (UniProt Q9H8G2)	inactive: 0.056	inactive: -0.039	inactive: 0.063	inactive: -0.135	inactive: 0.026		inactive: 0.063	inactive: 0.047	inactive: 0.067	
BTBD6 (UniProt Q96KE9)	inactive: 0.017	inactive: 0.001	inactive: -0.033	inactive: -0.059		inactive: -0.356	inactive: 0.066		inactive: -0.112	inactive: -0.021
C2orf49 (UniProt Q9BVC5)	inactive: 0.123	inactive: 0.043	inactive: 0.002	inactive: -0.189	inactive: -0.079	inactive: -0.026	inactive: -0.012	inactive: 0.016	inactive: -0.122	inactive: 0.097
C16orf58 (UniProt Q96GQ5)	inactive: -0.055	inactive: -0.013	inactive: -0.005	inactive: 0.029		inactive: -0.018	inactive: 0.006		inactive: -0.037	inactive: -0.086
C18orf32 (UniProt Q8TCD1)	inactive: 0.091	inactive: 0.038	inactive: -0.068	inactive: 0.131	inactive: 0.04	inactive: -0.101	inactive: 0.079	inactive: 0.066		inactive: 0.097
C8orf33 isoform 2 (UniProt Q9H7E9)	inactive: 0.212	inactive: 0.576	inactive: -0.084	inactive: -0.427		inactive: 0.333	inactive: -0.229	inactive: 0.015	inactive: 0.325	inactive: 0.442
C1orf131 isoform 5 (UniProt Q8NDD1)	inactive: 0.124	inactive: 0.274	inactive: -0.016	inactive: -0.242	inactive: 0.027	inactive: 0.306	inactive: -0.193	inactive: -0.052	inactive: 0.269	inactive: 0.19
C1QBP (UniProt Q07021)	inactive: -0.026	inactive: 0.097	inactive: 0.017	inactive: 0.007	inactive: 0.023	inactive: -0.063	inactive: -0.023	inactive: 0.017	inactive: -0.083	inactive: 0.098
CA8 (UniProt P35219)	inactive: -0.055	active: -0.329	inactive: 0.038	inactive: 0.01		inactive: -0.093	inactive: -0.002		inactive: -0.099	inactive: -0.127
C4A (UniProt P0C0L4)	inactive: -0.147	inactive: -0.216	inactive: -0.048	inactive: -0.316		inactive: 0.197	inactive: 0		inactive: 0.223	inactive: -0.32
CAD (UniProt P27708)	inactive: 0.006	inactive: 0.009	inactive: 0.019	inactive: 0.034		inactive: -0.08	inactive: 0.022		inactive: -0.028	active: -0.458
C8orf76 (UniProt Q96K31)	inactive: 0.03	inactive: 0.109	inactive: 0.028	inactive: 0.011	inactive: 0.015	inactive: 0.01	inactive: -0.075	inactive: 0.013	inactive: -0.025	inactive: 0.021
C2CD2L (UniProt O14523)	inactive: 0	inactive: -0.039	inactive: -0.052	inactive: -0.049	inactive: 0.007	inactive: 0.038	inactive: -0.041	inactive: -0.014	inactive: -0.006	inactive: -0.099
